From paper PMC11077084, “Biochemical characterization of the meiosis-essential yet evolutionarily divergent topoisomerase VIB-like protein MTOPVIB from Arabidopsis thaliana” (Nucleic Acids Research, 2024)
Results are given in words; binding and its absence hold for the method and conditions named. For some of these results: In cells and extracts the contact can be indirect. Some results given as binding are weak or reduced against the parent protein; the word gives no strength. For some of these results: Tags and fused reporters may be left off the sequences shown.

What was measured:
[1] = target: T1, A. thaliana Flag-SPO11-2 (A. thaliana) (UniProt Q9M4A1); assay: pull-down; three proteins co-expressed in High Five cells; lysate over amylose resin (150 mM KCl), eluate over anti-FLAG M2 gel, then heparin, Mono Q and Superdex 200; components shown by SDS-PAGE, immunoblot and mass spectrometry
T1 sequence: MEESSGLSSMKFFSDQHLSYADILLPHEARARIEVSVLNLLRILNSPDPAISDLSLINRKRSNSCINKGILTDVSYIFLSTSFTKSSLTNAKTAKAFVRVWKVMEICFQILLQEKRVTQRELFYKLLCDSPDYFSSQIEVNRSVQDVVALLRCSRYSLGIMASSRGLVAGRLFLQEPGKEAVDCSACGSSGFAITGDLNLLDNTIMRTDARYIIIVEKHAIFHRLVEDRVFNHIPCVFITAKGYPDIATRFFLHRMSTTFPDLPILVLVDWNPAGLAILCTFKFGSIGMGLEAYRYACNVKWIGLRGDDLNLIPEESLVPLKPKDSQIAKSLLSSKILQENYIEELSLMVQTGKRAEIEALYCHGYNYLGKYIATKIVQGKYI

[2] = target: T2, A. thaliana His6-MBP-MTOPVIB (A. thaliana) (UniProt Q5Q0E6); assay: as above
T2 sequence: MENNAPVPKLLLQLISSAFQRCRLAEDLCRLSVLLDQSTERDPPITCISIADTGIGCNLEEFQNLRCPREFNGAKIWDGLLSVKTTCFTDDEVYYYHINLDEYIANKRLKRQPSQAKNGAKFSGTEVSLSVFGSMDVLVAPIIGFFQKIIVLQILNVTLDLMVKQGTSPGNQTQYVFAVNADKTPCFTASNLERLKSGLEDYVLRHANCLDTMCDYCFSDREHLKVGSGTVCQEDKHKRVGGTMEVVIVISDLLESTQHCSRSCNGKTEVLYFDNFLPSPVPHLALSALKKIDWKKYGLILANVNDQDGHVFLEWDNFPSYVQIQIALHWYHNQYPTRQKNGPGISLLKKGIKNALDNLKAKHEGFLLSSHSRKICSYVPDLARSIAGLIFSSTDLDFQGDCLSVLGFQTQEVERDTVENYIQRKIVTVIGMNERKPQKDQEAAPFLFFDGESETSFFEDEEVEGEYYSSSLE

[3] = target: T3, Nanoarchaeum equitans Topo VIA (co-expressed with Topo VIB from pETDuet) (Nanoarchaeum equitans) (UniProt Q74M54); assay: co-purification (Ni-NTA, then size exclusion); Topo VIA and Topo VIB co-expressed in E. coli; lysate heated to 75°C for 1 h, Ni-NTA in D buffer, Hi-Load Superdex 200 in E buffer with 500 mM NaCl
T3 sequence: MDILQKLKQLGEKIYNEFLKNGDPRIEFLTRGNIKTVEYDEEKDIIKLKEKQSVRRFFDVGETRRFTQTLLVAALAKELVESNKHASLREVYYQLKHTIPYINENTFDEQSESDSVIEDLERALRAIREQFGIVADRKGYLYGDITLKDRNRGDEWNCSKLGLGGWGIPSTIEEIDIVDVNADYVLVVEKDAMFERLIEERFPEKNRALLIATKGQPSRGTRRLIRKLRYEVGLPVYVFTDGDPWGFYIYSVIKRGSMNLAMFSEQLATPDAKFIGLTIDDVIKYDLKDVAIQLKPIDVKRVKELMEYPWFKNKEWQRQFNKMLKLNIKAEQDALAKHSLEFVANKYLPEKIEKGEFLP

B1: A. thaliana His6-SPO11-1 (protein, UniProt Q9M4A2 1-362)
chain: MEGKFAISESTNLLQRIKDFTQSVVVDLAEGRSPKISINQFRNYCMNPEADCLCSSDKPKGQEIFTLKKEPQTYRIDMLLRVLLIVQQLLQENRHASKRDIYYMHPSAFKAQSIVDRAIGDICILFQCSRYNLNVVSVGNGLVMGWLKFREAGRKFDCLNSLNTAYPVPVLVEEVEDIVSLAEYILVVEKETVFQRLANDMFCKTNRCIVITGRGYPDVSTRRFLRLLMEKLHLPVHCLVDCDPYGFEILATYRFGSMQMAYDIESLRAPDMKWLGAFPSDSEVYSVPKQCLLPLTEEDKKRTEAMLLRCYLKREMPQWRLELETMLKRGVKFEIEALSVHSLSFLSEVYIPSKIRREVSSP
- binding [1]: binds
- binding [2]: binds

B2: A. thaliana Flag-SPO11-2 (protein, UniProt Q9M4A1 1-383)
chain: MEESSGLSSMKFFSDQHLSYADILLPHEARARIEVSVLNLLRILNSPDPAISDLSLINRKRSNSCINKGILTDVSYIFLSTSFTKSSLTNAKTAKAFVRVWKVMEICFQILLQEKRVTQRELFYKLLCDSPDYFSSQIEVNRSVQDVVALLRCSRYSLGIMASSRGLVAGRLFLQEPGKEAVDCSACGSSGFAITGDLNLLDNTIMRTDARYIIIVEKHAIFHRLVEDRVFNHIPCVFITAKGYPDIATRFFLHRMSTTFPDLPILVLVDWNPAGLAILCTFKFGSIGMGLEAYRYACNVKWIGLRGDDLNLIPEESLVPLKPKDSQIAKSLLSSKILQENYIEELSLMVQTGKRAEIEALYCHGYNYLGKYIATKIVQGKYI
- binding [2]: binds

B3: Nanoarchaeum equitans Topo VIB (expressed alone from pET21b) (natural protein, UniProt Q74N98 1-567, looked up)
chain: MRRTFREATIAEFFEKNKQFLGFDSPRKALVMTVKELVDNALDATEEARILPTIKVTLKEGKYMTVRVEDNGPGIPFNEVPNVFGKFLYGTKFHVLKQNRGQQGIGAAAITLYSQLTTGKPIRVWDKPIDSNKAYYYEIMIDTKRNEPEVLVKKEVKLNIKHGLIVEADIKGEYTKGKQSVDQYLKLTAVANPHAEIIYRTPKGEYIVFKRGTNELPPLPKEIKPHPHGIELGQLKKMVSEHKGDLMDFLIKNFSSVGEDKAKEILARYIFYKEGKEDFEKFFKRFRGRKIDIKSLTSEDLELLLKAMRETKLKMPSAKALIPIGEKNLQIGITKEYDVEYLAVKTRKPKVYSGGIPFLVEVAIGYGDFEKAEILRFANRTPLLYKAGECAIVKAIKDINWKRYGFEVENNLPKNALILVHIASVKVPYTSESKEAIADIPEVREEIKRALQEVARKVQIYIKKKEETKELAEKYLRFYAYGKEIERYLPKLIDKDVDSVVTKTILKRLEEELLERIKNNKTIVTHIENKDYETAKKLIKKMVMPLIKKKIIDESFIDRLIQLYNVS
notes: Topoisomerase VI subunit B, Nanoarchaeum equitans, codon-optimized cDNA in the Nde1 and Xho1 sites of pET21b; The tag is inferred from the vector and the Ni-NTA step; also called N. equitans Topo VIB; source: E. coli Rosetta (DE3) pLysS, purified (Ni-NTA, HiPrep SP XL, Hi-Load Superdex 200)
- binding [3]: binds
